Laboratory results: the supplement of paper PMC12819154, “High-throughput peptide-centric local stability assay extends protein–ligand identification to membrane proteins, tissues and bacteria” (Nature Structural & Molecular Biology, 2025)
The other results are listed elsewhere or left out. Small differences around the control level are noise.

Chains of the proteins cited; added tags and fusions are not shown. Lines headed by an entry give the natural chain unless they say otherwise; changes in a name come on top.
UniProt Q9JIY2: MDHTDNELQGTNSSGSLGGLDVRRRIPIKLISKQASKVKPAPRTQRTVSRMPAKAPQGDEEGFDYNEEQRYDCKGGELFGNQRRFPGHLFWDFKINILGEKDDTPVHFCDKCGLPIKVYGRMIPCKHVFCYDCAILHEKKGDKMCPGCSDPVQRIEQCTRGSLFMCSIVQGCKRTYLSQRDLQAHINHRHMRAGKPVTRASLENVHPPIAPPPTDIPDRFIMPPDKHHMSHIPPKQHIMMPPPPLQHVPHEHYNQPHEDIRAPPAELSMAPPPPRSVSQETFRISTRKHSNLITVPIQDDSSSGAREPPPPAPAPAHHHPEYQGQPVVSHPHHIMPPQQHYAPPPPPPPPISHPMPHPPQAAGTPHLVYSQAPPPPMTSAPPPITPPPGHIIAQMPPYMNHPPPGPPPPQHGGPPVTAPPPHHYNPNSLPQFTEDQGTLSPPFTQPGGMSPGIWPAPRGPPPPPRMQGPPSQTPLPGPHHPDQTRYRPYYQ
UniProt Q9QXA7: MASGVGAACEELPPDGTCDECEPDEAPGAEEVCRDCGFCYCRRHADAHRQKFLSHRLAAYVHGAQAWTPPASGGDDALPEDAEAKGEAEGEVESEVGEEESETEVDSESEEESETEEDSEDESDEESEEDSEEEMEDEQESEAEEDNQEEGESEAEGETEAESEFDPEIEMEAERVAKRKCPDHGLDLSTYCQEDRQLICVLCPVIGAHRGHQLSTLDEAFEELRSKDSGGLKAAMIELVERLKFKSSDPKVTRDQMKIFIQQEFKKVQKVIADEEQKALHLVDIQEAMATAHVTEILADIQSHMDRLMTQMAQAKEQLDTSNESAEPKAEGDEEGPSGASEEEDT
UniProt Q9JLC8: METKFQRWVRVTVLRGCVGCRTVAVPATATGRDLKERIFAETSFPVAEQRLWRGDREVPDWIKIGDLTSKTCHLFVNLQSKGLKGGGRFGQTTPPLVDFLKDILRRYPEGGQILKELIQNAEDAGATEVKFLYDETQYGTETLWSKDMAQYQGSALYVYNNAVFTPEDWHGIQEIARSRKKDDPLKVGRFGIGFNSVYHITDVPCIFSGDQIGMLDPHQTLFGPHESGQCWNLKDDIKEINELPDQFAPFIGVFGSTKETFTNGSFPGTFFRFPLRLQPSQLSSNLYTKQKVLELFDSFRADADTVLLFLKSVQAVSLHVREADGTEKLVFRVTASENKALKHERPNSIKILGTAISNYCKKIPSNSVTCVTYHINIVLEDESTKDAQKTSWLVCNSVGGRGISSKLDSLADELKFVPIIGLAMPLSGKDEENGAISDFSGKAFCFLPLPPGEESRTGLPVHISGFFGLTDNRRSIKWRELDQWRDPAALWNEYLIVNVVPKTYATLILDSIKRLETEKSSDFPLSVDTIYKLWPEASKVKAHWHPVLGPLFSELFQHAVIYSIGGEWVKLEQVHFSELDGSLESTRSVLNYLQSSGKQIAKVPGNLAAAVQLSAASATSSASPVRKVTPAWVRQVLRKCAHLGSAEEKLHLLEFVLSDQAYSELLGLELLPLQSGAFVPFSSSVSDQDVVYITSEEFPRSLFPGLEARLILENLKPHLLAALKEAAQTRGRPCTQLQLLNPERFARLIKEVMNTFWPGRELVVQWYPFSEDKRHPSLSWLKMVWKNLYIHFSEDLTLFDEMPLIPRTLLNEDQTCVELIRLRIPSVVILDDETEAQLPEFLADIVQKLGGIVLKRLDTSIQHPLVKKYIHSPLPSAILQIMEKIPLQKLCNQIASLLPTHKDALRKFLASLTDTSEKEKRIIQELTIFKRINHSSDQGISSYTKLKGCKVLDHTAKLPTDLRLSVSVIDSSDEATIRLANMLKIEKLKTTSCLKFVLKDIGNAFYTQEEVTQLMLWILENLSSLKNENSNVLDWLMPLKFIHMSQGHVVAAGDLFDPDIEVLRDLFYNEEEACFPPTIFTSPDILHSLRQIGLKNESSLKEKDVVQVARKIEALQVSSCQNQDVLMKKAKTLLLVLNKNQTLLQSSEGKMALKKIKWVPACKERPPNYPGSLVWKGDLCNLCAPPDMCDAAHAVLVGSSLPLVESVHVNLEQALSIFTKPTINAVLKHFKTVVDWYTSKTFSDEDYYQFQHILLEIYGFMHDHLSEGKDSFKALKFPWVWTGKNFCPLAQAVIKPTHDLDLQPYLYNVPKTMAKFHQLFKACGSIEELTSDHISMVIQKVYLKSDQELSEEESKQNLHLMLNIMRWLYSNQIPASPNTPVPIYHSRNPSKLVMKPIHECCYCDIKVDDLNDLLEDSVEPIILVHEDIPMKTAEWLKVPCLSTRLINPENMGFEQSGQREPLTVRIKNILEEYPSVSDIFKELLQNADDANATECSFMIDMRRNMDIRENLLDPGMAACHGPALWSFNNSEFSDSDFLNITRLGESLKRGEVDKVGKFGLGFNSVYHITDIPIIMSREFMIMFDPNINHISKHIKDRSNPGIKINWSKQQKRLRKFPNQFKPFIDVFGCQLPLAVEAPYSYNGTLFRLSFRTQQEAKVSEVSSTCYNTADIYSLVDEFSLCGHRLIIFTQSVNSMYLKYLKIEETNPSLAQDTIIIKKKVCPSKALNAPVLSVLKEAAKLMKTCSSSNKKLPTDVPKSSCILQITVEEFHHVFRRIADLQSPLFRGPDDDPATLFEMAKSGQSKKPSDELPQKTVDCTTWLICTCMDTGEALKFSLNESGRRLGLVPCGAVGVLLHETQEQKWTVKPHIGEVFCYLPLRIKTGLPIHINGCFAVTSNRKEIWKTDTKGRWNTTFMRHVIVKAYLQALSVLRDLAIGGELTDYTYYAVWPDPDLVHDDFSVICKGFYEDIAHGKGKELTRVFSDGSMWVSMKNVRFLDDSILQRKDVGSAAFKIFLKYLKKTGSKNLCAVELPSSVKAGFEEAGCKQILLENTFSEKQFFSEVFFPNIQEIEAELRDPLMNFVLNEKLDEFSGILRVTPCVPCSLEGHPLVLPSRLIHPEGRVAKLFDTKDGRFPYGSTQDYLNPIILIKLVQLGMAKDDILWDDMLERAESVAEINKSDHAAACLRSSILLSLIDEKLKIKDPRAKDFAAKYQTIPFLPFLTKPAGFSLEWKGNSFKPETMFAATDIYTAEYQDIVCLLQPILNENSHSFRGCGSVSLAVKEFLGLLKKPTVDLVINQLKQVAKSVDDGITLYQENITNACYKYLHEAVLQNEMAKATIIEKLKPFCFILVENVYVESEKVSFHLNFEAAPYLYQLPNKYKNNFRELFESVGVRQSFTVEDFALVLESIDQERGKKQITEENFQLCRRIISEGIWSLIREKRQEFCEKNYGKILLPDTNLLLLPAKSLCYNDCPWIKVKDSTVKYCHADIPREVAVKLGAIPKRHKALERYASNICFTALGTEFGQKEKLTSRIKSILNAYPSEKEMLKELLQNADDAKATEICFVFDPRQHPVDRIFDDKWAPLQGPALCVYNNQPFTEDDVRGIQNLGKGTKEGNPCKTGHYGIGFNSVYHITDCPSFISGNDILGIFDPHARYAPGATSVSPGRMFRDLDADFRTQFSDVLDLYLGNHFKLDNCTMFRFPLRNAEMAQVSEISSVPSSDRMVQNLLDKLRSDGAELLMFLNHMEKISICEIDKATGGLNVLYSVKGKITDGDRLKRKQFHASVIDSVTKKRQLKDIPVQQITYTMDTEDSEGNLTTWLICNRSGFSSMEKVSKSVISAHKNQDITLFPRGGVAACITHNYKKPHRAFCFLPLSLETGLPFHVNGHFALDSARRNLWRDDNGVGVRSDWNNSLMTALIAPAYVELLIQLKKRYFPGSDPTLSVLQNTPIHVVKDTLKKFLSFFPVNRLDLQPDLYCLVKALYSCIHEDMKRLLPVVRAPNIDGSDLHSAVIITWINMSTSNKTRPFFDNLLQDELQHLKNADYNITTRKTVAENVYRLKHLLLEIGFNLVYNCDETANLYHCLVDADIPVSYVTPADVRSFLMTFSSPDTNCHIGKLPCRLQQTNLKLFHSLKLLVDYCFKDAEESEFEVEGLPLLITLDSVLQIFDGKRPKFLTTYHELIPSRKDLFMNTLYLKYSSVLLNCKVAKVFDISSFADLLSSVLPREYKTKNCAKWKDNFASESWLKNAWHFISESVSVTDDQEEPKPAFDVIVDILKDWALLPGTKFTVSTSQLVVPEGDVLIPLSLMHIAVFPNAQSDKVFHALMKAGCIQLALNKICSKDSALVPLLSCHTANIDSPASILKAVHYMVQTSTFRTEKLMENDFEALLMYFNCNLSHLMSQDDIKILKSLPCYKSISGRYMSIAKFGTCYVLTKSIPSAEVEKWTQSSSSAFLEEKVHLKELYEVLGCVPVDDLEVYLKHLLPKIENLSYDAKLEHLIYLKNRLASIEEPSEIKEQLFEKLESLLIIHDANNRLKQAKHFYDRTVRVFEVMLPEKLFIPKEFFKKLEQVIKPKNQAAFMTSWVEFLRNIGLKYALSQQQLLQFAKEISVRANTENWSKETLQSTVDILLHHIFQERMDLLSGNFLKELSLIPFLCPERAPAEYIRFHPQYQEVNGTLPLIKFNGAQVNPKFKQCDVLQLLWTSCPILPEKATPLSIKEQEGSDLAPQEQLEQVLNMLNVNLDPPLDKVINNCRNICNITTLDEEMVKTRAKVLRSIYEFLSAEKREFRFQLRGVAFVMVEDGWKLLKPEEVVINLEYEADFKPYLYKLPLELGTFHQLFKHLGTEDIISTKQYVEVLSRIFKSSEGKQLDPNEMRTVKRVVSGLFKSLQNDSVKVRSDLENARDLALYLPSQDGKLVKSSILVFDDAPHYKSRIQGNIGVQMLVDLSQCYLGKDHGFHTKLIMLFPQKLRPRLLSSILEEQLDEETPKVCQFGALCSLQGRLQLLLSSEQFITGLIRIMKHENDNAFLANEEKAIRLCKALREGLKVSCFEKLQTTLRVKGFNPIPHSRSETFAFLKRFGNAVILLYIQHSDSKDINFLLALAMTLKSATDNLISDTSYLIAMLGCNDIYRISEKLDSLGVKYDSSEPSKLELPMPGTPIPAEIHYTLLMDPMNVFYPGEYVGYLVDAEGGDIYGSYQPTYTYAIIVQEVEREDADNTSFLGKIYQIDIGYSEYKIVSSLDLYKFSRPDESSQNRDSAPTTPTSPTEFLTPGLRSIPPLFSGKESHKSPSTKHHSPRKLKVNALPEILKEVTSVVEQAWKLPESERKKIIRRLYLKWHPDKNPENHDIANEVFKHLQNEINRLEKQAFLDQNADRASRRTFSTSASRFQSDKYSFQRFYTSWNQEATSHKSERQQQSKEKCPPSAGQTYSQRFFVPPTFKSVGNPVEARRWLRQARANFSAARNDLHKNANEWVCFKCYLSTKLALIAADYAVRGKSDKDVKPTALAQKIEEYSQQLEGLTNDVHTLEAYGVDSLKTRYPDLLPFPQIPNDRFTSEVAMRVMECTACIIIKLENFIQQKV
UniProt Q9QUT0: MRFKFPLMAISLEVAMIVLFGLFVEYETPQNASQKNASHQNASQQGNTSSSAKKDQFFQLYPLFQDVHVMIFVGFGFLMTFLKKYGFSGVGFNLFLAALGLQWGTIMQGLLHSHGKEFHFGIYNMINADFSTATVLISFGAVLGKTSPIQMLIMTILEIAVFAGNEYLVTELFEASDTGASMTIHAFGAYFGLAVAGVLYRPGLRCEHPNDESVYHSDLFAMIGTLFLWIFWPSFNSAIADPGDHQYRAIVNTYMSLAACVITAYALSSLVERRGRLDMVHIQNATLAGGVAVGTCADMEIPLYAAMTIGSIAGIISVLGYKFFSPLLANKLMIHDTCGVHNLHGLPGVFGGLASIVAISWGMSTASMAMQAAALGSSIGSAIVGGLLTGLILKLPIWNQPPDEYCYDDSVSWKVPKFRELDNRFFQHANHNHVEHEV
UniProt Q9JME7, whole entry: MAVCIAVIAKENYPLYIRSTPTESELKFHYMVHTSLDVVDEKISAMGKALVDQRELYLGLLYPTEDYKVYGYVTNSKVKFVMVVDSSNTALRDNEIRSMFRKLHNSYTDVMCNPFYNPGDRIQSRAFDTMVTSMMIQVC
UniProt Q9JKD3: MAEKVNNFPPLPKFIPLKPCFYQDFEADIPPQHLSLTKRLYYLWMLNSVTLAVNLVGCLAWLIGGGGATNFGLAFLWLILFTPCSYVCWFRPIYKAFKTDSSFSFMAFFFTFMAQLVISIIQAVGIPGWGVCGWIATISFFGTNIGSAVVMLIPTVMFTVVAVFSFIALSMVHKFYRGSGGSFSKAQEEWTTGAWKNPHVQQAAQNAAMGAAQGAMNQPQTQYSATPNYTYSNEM
UniProt Q9JL16: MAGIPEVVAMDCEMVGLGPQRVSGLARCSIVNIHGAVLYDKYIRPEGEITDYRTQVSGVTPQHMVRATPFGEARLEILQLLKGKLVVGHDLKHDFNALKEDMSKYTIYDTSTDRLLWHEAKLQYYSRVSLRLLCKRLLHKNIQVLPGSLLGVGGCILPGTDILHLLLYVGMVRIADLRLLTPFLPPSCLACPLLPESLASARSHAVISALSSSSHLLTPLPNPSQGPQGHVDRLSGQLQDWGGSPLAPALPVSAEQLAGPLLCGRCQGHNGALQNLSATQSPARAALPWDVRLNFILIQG

Compound: CN[C@@H]1C[C@H]2O[C@@](C)([C@@H]1OC)n1c3ccccc3c3c4c(c5c6ccccc6n2c5c31)C(=O)NC4 [staurosporine]
Assay: log2 fold change of tryptic peptide abundance, ligand vs vehicle (limited proteolysis) (log2 ratio); higher = more trypsin-susceptible (destabilized)
Conditions: ligand concentration: 20 uM; sample: mouse liver crude lysate; replicate design: treated separately

| Target | log2 fold change |
| --- | --- |
| UniProt Q9JLM4 (peptide sequence: GVVSQCEHCR, peptide start residue: 630) | 0.727 |
| UniProt Q9JHD2 (peptide sequence: SRYYVTRK, peptide start residue: 777) | 0.0697 |
| UniProt Q9JIY2 (peptide sequence: SVSQETFR, peptide start residue: 276) | -0.191 |
| UniProt Q9JJ28 (peptide sequence: ACQVYIQHTR, peptide start residue: 1225) | -0.713 |
| UniProt Q9JME5 (peptide sequence: IAPDVLRK, peptide start residue: 514) | 0.199 |
| UniProt Q9JHI9 (peptide sequence: DTEPKPLEGTHLMGEKDSNIR, peptide start residue: 254) | -0.155 |
| UniProt Q9ES34 (peptide sequence: LGLVETSSASPHVTHITIR, peptide start residue: 670) | -0.583 |
| UniProt Q9JLC6 (peptide sequence: FAEEDLKPQPMIKK, peptide start residue: 206) | 0.388 |
| UniProt Q9JJY4 (peptide sequence: YMRDPTFVR, peptide start residue: 258) | 0.303 |
| UniProt Q9JHL1 (peptide sequence: SDLPGSEKDNEDGSTWK, peptide start residue: 275) | -0.196 |
| UniProt Q9QXA7 (peptide sequence: LMTQMAQAK, peptide start residue: 308) | 0.0365 |
| UniProt Q9JHW2 (peptide sequence: AVDNQVYVATASPARDDK, peptide start residue: 196) | -0.295 |
| UniProt Q9ESK9 (peptide sequence: SVMETADEGR, peptide start residue: 1420) | 0.543 |
| UniProt Q9JLC8 (peptide sequence: RTFSTSASR, peptide start residue: 4381) | 0.141 |
| UniProt Q9JKS5 (peptide sequence: EYRPYETER, peptide start residue: 149) | 0.156 |
| UniProt Q9JJW0 (peptide sequence: YHAALAVIK, peptide start residue: 23) | 0.162 |
| UniProt Q9QUT0 (peptide sequence: FFQHANHNHVEHEV, peptide start residue: 425) | 0.182 |
| UniProt Q9JK23 (peptide sequence: NIPESTEILKK, peptide start residue: 266) | 0.21 |

| Target | log2 fold change |
| --- | --- |
| UniProt Q9ESC7 (peptide sequence: AHLANHDELISK, peptide start residue: 28) | -0.202 |
| UniProt Q9JHD1 (peptide sequence: ETGWKPSGK, peptide start residue: 689) | -0.472 |
| UniProt Q9EST4 (peptide sequence: TLYDESCSK, peptide start residue: 189) | 0.185 |
| UniProt Q9JME7 (peptide sequence: VYGYVTNSK, peptide start residue: 69) | -0.166 |
| UniProt Q9ES52 (peptide sequence: TGSSNLPHLKK, peptide start residue: 204) | 0.584 |
| UniProt Q9JLQ2 (peptide sequence: LQTLQSENSSLRR, peptide start residue: 414) | -0.187 |
| UniProt Q9JKX4 (peptide sequence: QWLAIQK, peptide start residue: 456) | 0.529 |
| UniProt Q9JKP7 (peptide sequence: EALPDGVNISK, peptide start residue: 21) | 0.0769 |
| UniProt Q9JIL5 (peptide sequence: MAQLADSSR, peptide start residue: 1002) | -0.228 |
| UniProt Q9JKD3 (peptide sequence: AQEEWTTGAWK, peptide start residue: 186) | 0.423 |
| UniProt Q9JJD0 (peptide sequence: AGVSGCFSTFQPTTGHR, peptide start residue: 43) | 0.478 |
| UniProt Q9JLN5 (peptide sequence: RAAANAGWRR, peptide start residue: 314) | 0.249 |
| UniProt Q9ES70 (peptide sequence: CSLADFQIEKK, peptide start residue: 40) | 0.188 |
| UniProt Q9JI39 (peptide sequence: GILLSGGQK, peptide start residue: 596) | -0.479 |
| UniProt Q9JL16 (peptide sequence: YTIYDTSTDR, peptide start residue: 105) | 0.4 |
| UniProt Q9JJ80 (peptide sequence: GGNANATVTQVLR, peptide start residue: 38) | 0.731 |
| UniProt Q9JIF0 (peptide sequence: TGEEIFGTIGMRPNAK, peptide start residue: 327) | 0.373 |
| UniProt Q9JM98 (peptide sequence: MITEFGHPATINNPK, peptide start residue: 257) | -0.3 |

Copied from the list:
In log2 fold change, UniProt Q9JLQ2 (peptide sequence: LQTLQSENSSLRR, peptide start residue: 414) is listed with -0.187
In log2 fold change, UniProt Q9JIL5 (peptide sequence: MAQLADSSR, peptide start residue: 1002) is listed with -0.228
